Record: PubChem BioAssay AID743458 (Peter MacCallum Cancer Centre, 2014)
Here is an unselected part of about 1,800 deposited reagents. In the full data, 732 (41%) got an active call. 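Calls are per siRNA reagent; a gene was deemed confirmed only if most of its four siRNAs scored.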 Reagents against one gene are numbered here.

Screen: 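Find knock-downs that make vorinostat-resistant colon cancer cells sensitive again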 (follow-up of hits)
Cells: human HCT116-VR colon cancer cells made resistant to vorinostat
Reagent: single siRNA or pool against human genes, 25 nM per single siRNA
Timing: about 72 h after transfection, including 24 h of drug
Challenge: vorinostat, 2.5 µM final, for 24 h
Measurement: 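Live-cell fluorescent viability and luminescent caspase 3/7 activity after vorinostat treatment, background subtracted, mean of duplicate plates, as fold change over mock-transfected wells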
Reading the numbers: viability relative to mock: higher = more living cells than mock; caspase activity relative to mock: higher = more apoptosis than mock
Active means: 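An siRNA counts as active if classed as reduced viability or as caspase activation, otherwise inactive; a hit class needed wells that remained healthy in the absence of drug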

target gene	reagent no.	viability relative to mock	caspase activity relative to mock	viability hit class	caspase hit class	Outcome
MAP1S	1	0.93	0.78	no change	no change	inactive
MAP1S	2	0.92	0.81	no change	no change	inactive
MAP1S	3	0.26	1.83	reduced viability	no change	active
MAP1S	4	0.86	1.56	no change	no change	inactive
P2RX2	1	0.83	1.94	no change	no change	inactive
P2RX2	2	0.72	2.62	no change	caspase activation	active
P2RX2	3	0.74	0.84	no change	no change	inactive
P2RX2	4	0.68	4.04	no change	caspase activation	active
C1orf52	1	0.7	2.84	no change	caspase activation	active
C1orf52	2	0.72	2.21	no change	no change	inactive
C1orf52	3	0.3	3.27	reduced viability	caspase activation	active
C1orf52	4	0.74	1.68	no change	no change	inactive
FLII	1	1.14	2.29	no change	no change	inactive
FLII	2	0.8	4.99	no change	caspase activation	active
FLII	3	0.68	5.08	no change	caspase activation	active
FLII	4	0.71	3.02	no change	caspase activation	active
ZNF48	1	0.83	0.69	no change	no change	inactive
ZNF48	2	0.52	4.11	no change	no change	inactive
ZNF48	3	0.93	2	no change	no change	inactive
ZNF48	4	0.75	1.36	no change	no change	inactive
NINJ1	1	0.88	1.13	no change	no change	inactive
NINJ1	2	0.62	4.23	no change	caspase activation	active
NINJ1	3	0.88	0.84	no change	no change	inactive
NINJ1	4	0.82	1.56	no change	no change	inactive
DNTTIP2	1	0.55	1	reduced viability	no change	active
DNTTIP2	2	0.6	0.94	no change	no change	inactive
DNTTIP2	3	0.55	1.38	reduced viability	no change	active
DNTTIP2	4	0.58	1.01	no change	no change	inactive
TRIM4	1	1	1.4	no change	no change	inactive
TRIM4	2	0.68	1.71	no change	no change	inactive
TRIM4	3	0.9	0.92	no change	no change	inactive
TRIM4	4	0.7	1.81	no change	no change	inactive
RGS18	1	0.94	3.97	no change	caspase activation	active
RGS18	2	0.64	5.42	no change	caspase activation	active
RGS18	3	0.85	1.52	no change	no change	inactive
RGS18	4	0.68	3.14	no change	caspase activation	active
TDRP	1	0.6	1.68	no change	no change	inactive
TDRP	2	0.8	1.76	no change	no change	inactive
TDRP	3	0.77	4.2	no change	caspase activation	active
TDRP	4	0.4	4.66	reduced viability	caspase activation	active
CALM3	1	0.42	5.62	reduced viability	caspase activation	active
CALM3	2	0.86	1.86	no change	no change	inactive
CALM3	3	0.68	1.17	no change	no change	inactive
CALM3	4	0.96	1.38	no change	no change	inactive
IQSEC1	1	0.8	1.08	no change	no change	inactive
IQSEC1	2	0.4	2.58	reduced viability	caspase activation	active
IQSEC1	3	0.28	3.27	reduced viability	caspase activation	active
IQSEC1	4	0.42	2.3	reduced viability	no change	active
ALOX15	1	0.8	2.17	no change	no change	inactive
ALOX15	2	0.99	1.48	no change	no change	inactive
ALOX15	3	1.03	1.12	no change	no change	inactive
ALOX15	4	0.34	3.48	reduced viability	caspase activation	active
B3GALT2	1	0.87	1.89	no change	no change	inactive
B3GALT2	2	0.86	0.98	no change	no change	inactive
B3GALT2	3	0.58	3.17	no change	caspase activation	active
B3GALT2	4	0.88	1.48	no change	no change	inactive
CNOT3	1	0.84	2.53	no change	no change	inactive
CNOT3	2	0.39	5.36	reduced viability	caspase activation	active
CNOT3	3	0.56	4.59	reduced viability	caspase activation	active
CNOT3	4	0.82	5.02	no change	caspase activation	active
